Laboratory results as given in paper PMC5861252.
These are yes or no findings as the source states them, for the method shown. In cells and extracts the contact can be indirect. A result given as binding can be weak or reduced; the word gives no strength.

Biological target: H-NS2 with a His tag at the N-terminal end (6His-H-NS2, plasmid pLATE51-6HisH-NS2) (E. coli strain 042)
Assay: pull-down; purified His-tagged H-NS2 (tag at the C- or N-terminal end) mixed with E. coli 042 total protein extract, purified again on Ni2+-agarose (A50 buffer: 20 mM HEPES, 100 mM KCl, 5 mM MgCl2, 50 mM imidazole; eluted with 200 mM to 1 M imidazole); SDS-PAGE with Coomassie blue, bands identified by LC-MS/MS; only the target purified

binding: binds
B1: H-NS protein of E. coli strain 042 (protein, UniProt P0ACF8 1-137)
chain: MSEALKILNNIRTLRAQARECTLETLEEMLEKLEVVVNERREEESAAAAEVEERTRKLQQYREMLIADGIDPNELLNSLAAVKSGTKAKRAQRPAKYSYVDENGETKTWTGQGRTPAVIKKAMDEQGKSLDDFLIKQ
